PubChem BioAssay AID602196 – INSERM, 2012
Purpose: 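Modifiers of cisplatin sensitivity in A549 cells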. System: human A549 lung cancer cells. Knock-down reagent: siRNA pair against human genes. Timing: 48 h transfection before cisplatin; time from cisplatin to read-out not stated. Challenge: cisplatin at a dose killing half of control-siRNA cells; exact dose and duration not given. Measurement: 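Cisplatin cell death as a shift from the 50% death seen with control siRNA; siRNAs toxic or growth-blocking alone scored 0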. Scale: two-siRNA summed score (-2 to +2): higher = both siRNAs protect from cisplatin killing; -2 means both sensitise. Active means: 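siRNAs harmful alone (LDH or WST-1) get 0; others get +1 for less and -1 for more cisplatin killing; genes are active when the two siRNAs give the same sign, summing to ±2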. Meaning of the calls: active = both siRNAs shift cisplatin killing the same way; inactive = no consistent shift, or siRNA harmful alone.
The whole screen tested about 23,000 reagents; shown is an unselected part. Of all reagents, 455 (2%) got an active call. 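Active includes both protection and sensitisation; some change values fall well beyond the stated -50 to +50 range.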 Further read-outs or replicates are left out here. Not stated in the record: the amount of reagent.

ZNF681: two-siRNA summed score (-2 to +2) = 0; activity call = inactive
LOC440707: two-siRNA summed score (-2 to +2) = 1; activity call = inactive
PRMT2: two-siRNA summed score (-2 to +2) = 0; activity call = inactive
WDFY2: two-siRNA summed score (-2 to +2) = 0; activity call = inactive
LRRC43: two-siRNA summed score (-2 to +2) = 0; activity call = inactive
RESF1: two-siRNA summed score (-2 to +2) = -1; activity call = inactive
PHKA1: two-siRNA summed score (-2 to +2) = -1; activity call = inactive
ZBTB40: two-siRNA summed score (-2 to +2) = 1; activity call = inactive
SLC1A5: two-siRNA summed score (-2 to +2) = 0; activity call = inactive
LOC442329: two-siRNA summed score (-2 to +2) = 1; activity call = inactive
TEX55: two-siRNA summed score (-2 to +2) = 0; activity call = inactive
ANKS1A: two-siRNA summed score (-2 to +2) = 0; activity call = inactive

Sorted by “two-siRNA summed score (-2 to +2)” (highest first): some entries from above.
LOC440707: two-siRNA summed score (-2 to +2) = 1; activity call = inactive
PRMT2: two-siRNA summed score (-2 to +2) = 0; activity call = inactive
